{"source": "patent US20260232821A1", "about": "“ALBUMIN CONJUGATE, METHOD FOR PRODUCING SAME, AND COMPOSITION FOR TARGETING, DIAGNOSING, OR TREATING CANCER COMPRISING SAME” (KYTECBIO CO., LTD., priority 2023, published 2026)", "origin": "cited, not measured here", "conditions": "in an ethanol solution; cited from earlier work", "note": "For at least one compound, name, drawing or mass did not settle the structure."}
{"molecule": "O=C1OC2(c3ccc(O)cc3Oc3cc(O)ccc32)c2ccccc21", "note": "[fluorescein]", "values": [{"measurement": "quantum yield of reference sample", "result": "about 79.0%"}]}
